At least one compound was matched to its structure with a doubt left.
How the values were obtained:
[1] = tested on: aberrant pro-fibrotic signaling; assay: pro-fibrotic signaling in vitro; type: cell-based
[2] = tested on: CD41 Tregs and Th17 cells in peripheral blood mononuclear cells; assay: Example 1: exploratory PD analyses of peripheral blood mononuclear cells; type: in vivo, human
[3] = tested on: patients with chronic GVHD; assay: Example 2: phase II randomized study of belumosudil (KD025-213) in cGVHD, efficacy and safety; details: pooled;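 also: allogeneic HCT recipients aged ≥12 years with persistent cGVHD after two to five earlier systemic treatment lines, responses judged by site investigators, 12-month analysis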

## CC(C)NC(=O)COc1cccc(-c2nc(Nc3ccc4[nH]ncc4c3)c3ccccc3n2)c1 [belumosudil, 2-{3-[4-(1H-indazol-5-ylamino)-2-quinazolinyl]phenoxy}-N-(propan-2-yl) acetamide]
[1]
  aberrant pro-fibrotic signaling: inhibited aberrant pro-fibrotic signaling
[2]; by cycle 2 day 1, continuing through C4D1 and C6D25, across cohorts
  Th17 cells: decrease
[2]; by cycle 2 day 1, continuing through C4D1 and C7D1, across cohorts
  percentage of CD41 Tregs: increasing trend
[3]
  share of responses occurring within 6 months of treatment: Ninety-one

— patent US12097202B2 (Kadmon Corporation, LLC, priority 2022, dated 2024)
